# The whole screen tested about 300,000 compounds, of which about 65 (0.02%) were called active. These results got no clear call from the source, so the numbers are uncertain.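 Rule for the calls: active = lowest replicate activity score at least 50, where 100 means six control SD above control mean; inconclusive = lowest score under 50 but half or more replicates reach 50; inactive = the rest.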
# Test: polyadenylation inhibitors in yeast reporter cells, primary screen, luminescence, S. cerevisiae (AID 1875);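 note: yeast exposed to compound for 9 h at 30 °C; higher score means more reporter readthrough which indicates perturbed polyadenylation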
# Settings: S. cerevisiae SKY197-pL101 polyadenylation reporter, beta-gal luminescence; at 12 µM; active compounds read high; efflux-impaired pdr1/pdr3 knockout yeast; score 100 = 6 SD above DMSO
row,SMILES,activity score
1,O=C(OC1CN2CCC1CC2)c1ccc([N+](=O)[O-])cc1 (configuration not stated),inconclusive: 20.6%
2,CCN(CC)CCCOC(=O)C(O)(c1ccccc1)C1CCCCC1 (configuration not stated),inconclusive: 42%
